# Results are given in words; binding and its absence hold for the method and conditions named. In cells and extracts the contact can be indirect. Here binding means that the protein was enriched with, or labelled near, the bait; the list need not be complete. Tags and fused reporters may be left off the sequences shown.
# T1: Myc-tagged EhDUF2419 (Entamoeba histolytica) (UniProt C4LXA2)
# T1 sequence: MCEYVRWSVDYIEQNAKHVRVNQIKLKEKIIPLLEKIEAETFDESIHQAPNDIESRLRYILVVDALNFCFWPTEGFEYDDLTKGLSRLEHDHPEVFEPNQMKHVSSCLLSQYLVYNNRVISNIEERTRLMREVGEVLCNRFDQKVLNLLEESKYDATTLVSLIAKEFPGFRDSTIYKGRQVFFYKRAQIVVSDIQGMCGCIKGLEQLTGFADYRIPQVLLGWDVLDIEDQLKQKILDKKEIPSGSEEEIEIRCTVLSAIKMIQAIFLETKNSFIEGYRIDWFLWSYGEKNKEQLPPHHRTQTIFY
# B1: tRNA (Cytosine-5-)-methyltransferase, EhDNMT2 (enzyme, UniProt C4LVM5 1-630)
# chain: MEGEKKEEIQQEEIKKDDGRKPSKKDYHYITENPEMEKFYSQQTSIMNNEEFKEYIETMHKTLPTTFRLTRNEQTPIIKEELKRLINNIENEQERPIELSWYPGGIAYQLNASRGEIQKNKSLEELRKFIIVQTEAGVISRQEAVSMIPPLFLNVKPYHDVLDLCAAPGSKTTQILEMIHSGPEEATGIVIANDSDYKRCELLDHQTKRLQSPNIIITNHLAQNYPVKIGDQFMKFDRVLCDVPCSGDGTLRKNPDAWGKWNIMRGINLHKTQCTIMRRAVRLVKSCGRFVYSTCSLNPYEDEAVVAFILRNYPQIRLVDVSTELPTLKRCKGVSSWKVFNKEGEELTIKPDSKEDGSSKIPSTLFPPTEEEAKRFRLDRCMRFLPQLQNTGGFFVAVLEKVGDLDNDFKEEKQKRKKAPKPIKTRKGDSRLMPLNMTEGYETITQTIKNFYGLEGSGFDFECLGFKGDGKGTLHYLIKKAMDLVRINELKIVGGGLKLFRKHSVGSNSSFRLSNEGLSAVAHLFGERRKLEIKHEEFVKMLVSESPVQLGNEVMERAKDMEVGCVIFQIKDANSPINKQYFSGWKSKGLSLFVSKVDKKALCQNLKIELPKNELHEDSDSEKKEKKDEN
# B2: Rho guanine nucleotide exchange factor EHI_159500 (protein, UniProt C4LX32 1-693)
# chain: MLSPRFKQTLQLKKFSFDSKSKDIGSKYNTTQFQSFYQETFSNELVIFLINGSRFAIPRSCLQKPVALKSAISVFLSMNSSKKEERFELEVDSLVEKQLPIYFEFLINPYGPSTYSNEIFIGLALLRFGIHLEDVINYLKPSNLNEFIYELFERMNDVVVESIMLFDPDKEQSEFFLSYIKNVEHDSKNIVILEQLKHWFTPMIISDGNDFVESNYTPRSATSTDSERHSDLLSKSALDNGTYSPLLSPTRRSQGANSLGVPHEKIKGLKVQSLRGNLPQKKMESLPDIKKAAEIEANEKKTKKRKSFKEPLKNKEKEGIKSPKQKEKEKKVVTPLPKTRETLDTITMVEKDWSQKKYNEQEVIQLEEIIRRHMMQMMYNTNSLRKRKDAFIEFVETERSLLKNMEMMKIYFADPLENEPKVQVVFGLLSQCIAASKSILVTLEQGMNEYKYNTNLGEIINSTLQFISPLLEYSISYNTMATVWKEIKNTINGKKVVQQAAEKISPQTLEQLLIQPVQRAMRYPMMIEGLMKVTSPYNPDYRMLQSAYSGFHQFCQILNERAKMRDRLVEVAKEHQIDSIVAKGRFHLFTAKGELKDKKKQQVIIELCNDKIYFFGKKEKKNVLIKEYELSCDINSSTNGPNVTLVKYSELQPLGIVFNKEQDADEFIRLIQWSISTCFYKLDDERSWMDQLK
# B3: E3 ubiquitin-protein ligase listerin (enzyme, UniProt C4M9T6 1-1407)
# chain: MISASSVLNDETLFLLKKFQKSNETTIIKTLDELKRNILLEPFISTKKEQQAFSLHFSNIFTTLSTHKSSNVRLNLFICLSDGILQSPQGKNMISFCISEIIPWWLLCCHDSVKEISEAAKKALNILSFEGRQKVITSNISQILRLVSSNEYDLISRMGCLATILPNINISKLSSYGKSHLENSIKSLIESYGSITNEVYFSSIDAALITCNFIVMERFESLKNIIVKTIDELQPFSKYSKQLFLCITSLLENGAIFNEEFYNKIIQYISTACLGSLYVFPTLKRLLPFIKEKELEKKYIEGVFKAIGDSHIRGPQRAVVILHYFESIKYFKYTNINELIEIMKLLLNDPGSIMIDSGYSSMGIFLTKLNETKEIQGVLSSAVTYLRRSEEKEYLIHLNCMKFIVDKCIKNEFTQGFSYDLLKTIIDKNENDHFFNDNEIDLIIFILQKYPATEEVHQMIVRQFQHIFMLSIEENINEFDIINDTVEINDEFLSYVIKMEDLLIQSISFEPSTSIGYLLNQMFFNLFPKHYALNHLNYLRLFINKLKEQQFIQTIVLQINPLIQLLLHSFKSSKDIVQSIISISPRLLTPQQLTELLFTNSINHLQVLLNVDLINYLIKSTINSKELLLHIIKSITSPDIFLPIHQPIRNVLLKLLPSLISYIGIEPIHEMLKSLLLSPNCTSFCISLTSEIPPLRNLLINDIKLLLPLSSFISLIPSYAQNIKSPLLIPMPFINSSEYPHYNNTLSLLVKLYHLNNEEIKEDNEYIEYWLFDSYQKLTNRISVEIPHLQQLILLQYLFKKNEIEQYLIFHIINQLSSWINLSKESIEYLAHLFDSSTSYSIRFFLSTYLSPLHIDWLEKKVNIIIKKFFMVNTQSDPQGLKELSILYPLIFFPTHLKMVFKYIFSLEITSELELPFLHILHYVFSSSCSLCFESLENEESLSLIYQFLLKILTSSVSSNLMKRGALQVSQILITHSLPPKLLTSESEGIQLSFKISLIDFIVNSIINKSNTQLISELLLQTDLLAEIDFMSDSMRKYIPELFKILKGKDSIIVKICTGYLIGASMNFKSDETFIDFDDNEQQKYHPLPPSLEEYLDKAIESFSQFNTLNKTTLIIFILGMLRKIKDSSTEYRSWIVAYLQAHHFELFINNLYTLLPDQHVPLTLSSVLSLLHSFINGEDEDENQLLTKQNENQILNILASYCMFVIVQSFPNVVRQWCLSLRKSAPKMVKKFFERNICPFILQEEVQKILSWKETDDFILRLQLDGKAVTVVYKNDELVFESQLIFPSTYPLDMITVNVASNKVSVSEAKSHLYKRMLTMNLMTRDLGIIDACLLWKQQLDRQFDNSDACPICYSLFYLRTTTIPNVACKCCRKKFHKQCIFGWFRSTGRHDCPLCTRNFYGENKN
# B4: eukaryotic translation initiation factor 4 gamma (protein, UniProt C4LTB2 1-437)
# chain: MSRLNRGGKIASLIDRYENNDKKKQEDARIVAEVRASPRKAAEAKAKEEAEAKKIQEENEKKILEEARIKEEAEAKAKEEAEAKAKEEAEAKAKEEAEAKAKEEAEAKAKEEAEAKAKEEAEAKAKEEAEAKAKEEAEAKAKEEAEAKAKEEAEAKAKEEAEAKAKEEAEAKAKEEAEAKAKEEAEAKAKEEAEAKAKEEAEAKAKEEAEAKAKEEAEKKAKEEVKEENKEEVKEEVKEEVKEEVKEENKEENKEENKEENKEENKEENKEENKEESEVQDTTPSERVMSKGEKKARKALEKVGLVEVPNVIEFSLKRAGSKFVINQPAVYKLPSSEHYVVYGEPRNEYMDEKTKRILEQLQANMKEQQNTTEEKKEEQVNESSAPATTEAVEDDGYVPVEADVNVLMSQANTTHEKAYAALKKTKGDLVSAFFEFQ
# B5: glycylpeptide N-tetradecanoyltransferase (enzyme, UniProt C4LX52 1-451)
# chain: MPHQQGKGKKTTKKSKKITKKEETEEEKIIELKPKELVKEEEKSEFLQAIKKEEDGKTIGDIDNDHKFWKYEPVTGTGVIVPQKYNNPIQPDIPIEKVPKVPAPLPNENMEYCIVNIDNEKEMEEVYILLKENYVEDDDATLRFDYQKEFIKWCLKVPGYYPSWFVGIRQKDSHELIGFITGVPSSIKIYDRIVDVAEINFLCVRKDMRKFKLAPQLIKEVTRQVHLTGLFQAVYTSGTELPNVVCTTQYFHRPLNPKKLDAIGFSTCNQRLTLQRALKLYKLPEQPNSIGFRQMEEKDVDIVTEKLNRFLHTHYDLTVLFSKEMVAHTFLSRDGIIKSYVLEQNGVIKAFGAFYILPSSILNSYEYSELYIAYQYYYFYDKDVDFKQFFKDILICAVQNHCDVFNCLNISENQQYLADLLFVPGDGYLKYYLYNWACPKVEPNKLAIILQ
# B6: eukaryotic peptide chain release factor subunit 1 (protein, UniProt C4LSV8 1-468)
# chain: MAVLNKAIKVKGDEMNEEEAIKLFQTKRLIKNIEQARGDGTSMITLIMKPMEQISKMMQKLVEEYGTATNIKSRVNRQSVLTAITSTQNRLKLYHVVPPNGLIIYCGSVYTEKGEKLLCIDFEPPKPINTSTYLCDNRFHTEALNDLLQNDDKYGFIIMDGNGTLFGTLQGNTRTVLQKISVELPKKHGRGGQSSVRFARLRLEKRHNYVRQVGELAVQNFITDDRPNVCGLILAGIADFKTVLNKSMLFDQRLQAIVLNIVDVSYGGMNGFNQAIELSAETLRNVKFVAEKDLINSFMDNIKMDTGKFVFGVQETLKALEMGAVEKLIVWENLPTIRIELKHPQTDERKVLYLKKESEAAENGVIKDPETGVDFQLVESESFVDWLSKHYKEFGAHLEFVTDKSQEGAQFAKGFGGIGGILRYQLSMDELDDNFNMNEEFEHEEEDDDDIFGDEADHFQEFDDEFGL
# B7: eukaryotic translation initiation factor 3 30 kDa subunit (protein, UniProt C4LUV3 1-213)
# chain: MSWEDFDIAEEPDFGETTSTLAALAPETKEETKIVSNKELKEAKKNNVKVAEEYVDPTEGMTEEEKALALRRQQEESDIKGAERLYQGVDDLHELDTMSVITDKDFQKYGKLLGLKGHSLYKEKSKQYKLLVKECMRELTNDLTSVEIKELSAYMEVLFNQQVQIEKEADKKKKKGGKKNLAKPATTGKKYTERVEDQLEDDYYDDEDDYDFM
# B8: elongation factor 2 (protein, UniProt C4LWB7 1-880)
# chain: MTILPSKVILKLQQNAANVRNICVLAHVDHGKTSICDALIASNGIISKKLSGKVRYLDYRDDEQVRQITMKTSSISLYTQLGDQHHLLNLVDSPGHVDFSGEVSSAVRLTDGALLVVDCIEGVCVQTQTVLRQAASEGLQMILIINKIDRLVFEKNFSIEEATDHLEQLVNSVNNATAVITDDNGTVFGDDYFDPIKGNVVFASAIDGWGFDLVAISEIYAKKFGMKEESLRNILWGEHFINMKTGKTFKTQIDGTMKVFSQLALKPIWDIYNTVHQYFDNKTKEAAKQRIIKISTALGMNIGAREFAIHEEKSFLFSMMNNFVPIAKTILRCAVLHLPSPLEAQPKRINKIYSTHTSLLKDTVVHCDASSPECVLYAAKIFPFGEQMIALCRVLGGTVRRGQELFILPSKYDPTISNAADKIHSFKANQIYLLMGQTTQDMDEVPAGNILGIQVTGVNMFNAATLSSTLQCSPLAPLVSSGAKPVLRVAIEPVHSEDMKALIDGLNLLALSDPSVITTIQDSGENLLLTTGELHLERCMKDLKELFARVPFTYTDPIVSYRETILGQSGAAEESTADESVSFKVHCLAMKEETIDKINDISTMLRMSSRNHQTDEHLNQKIETILEGENNEWKNKLICFGPKRCGPNILINLSDENLPLWPQDKDIKNYTSLVTNAIISGFQLATSAGPLCDEPMEGLIFIIDEILIDEETRSGNIQGQVITAFKDACLAAFQLGRQRIKEPMYLCDIRCPTECIGKVFQVLDKRRAKTLEEGYDETQLMNIIKAQLPVAESFGFTDDMLGQTSGAAFTQTQFDRFVTIPIDPFWVPTTEEELEEYGEKADIKNIAKIAIDNTRKRKGLVLDEKIVEFVDKQSTRSKKK
# Target: T1, Myc-tagged EhDUF2419 (Entamoeba histolytica)
# Experiment: affinity purification with mass spectrometry; anti-c-Myc agarose beads with whole-cell lysate (1 to 2 mg/mL) of MycEhDUF2419-overexpressing trophozoites (24 ug/mL G418), 2 h at 4 °C, six low-stringency washes (0.1% Tween 20, 0.1% NP-40); LC-MS/MS after in-gel trypsin digestion; three replicates compared with empty vector trophozoites (fold change > 2, p < 0.05)
row,Binder,binding
1,B1,binds
2,B2,binds
3,B3,binds
4,B4,binds
5,B5,binds
6,B6,binds
7,B7,binds
8,B8,binds
